Taken from: PubChem BioAssay AID686938 (Drosophila RNAi Screening Center, 2013)

- Screen: 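Looking for CRAC channel components and the factors controlling them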 (primary screen)
- System: Drosophila S2R+ cells
- Knock-down reagent: long dsRNA against Drosophila genes, about 0.25 µg dsRNA per well, roughly 10,000 cells
- Time to read-out: 5 days of knock-down before the calcium assay
- Treatment: thapsigargin (SERCA pump blocker) to empty calcium stores; entry signal taken 4 min after adding it
- Detection: 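Duplicate raw fluo-4 intensities per well from a plate reader, at rest and four minutes after thapsigargin emptied calcium stores; entry-to-rest ratio filled for only some wells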
- Scale: calcium entry signal: higher = stronger calcium signal after store depletion; resting calcium signal: higher = higher resting calcium signal
- Call rule: 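Called when the plate z-score of the entry-to-rest ratio, mean of duplicates, falls below −3; wells with low overall dye signal (Fmax z below −2) or more than five off-targets excluded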
- Meaning of the calls: active = strongly reduced calcium entry; inactive = no strong reduction
In all, the deposit lists about 23,000 reagents; this is an unselected part of those with a known target gene and a result. In the full data, 75 (0.33%) got an active call. 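Raw plate signals without normalisation; calls rest on plate z-scores that were not deposited; ratio present for only 364 wells.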 Entries without a mark were called inactive. Reagents against one gene are numbered here. Not given: the dose of the treatment.

| predicted target | reagent | calcium entry signal, replicate 1 (fluorescence units) | calcium entry signal, replicate 2 (fluorescence units) | resting calcium signal, replicate 1 (fluorescence units) | resting calcium signal, replicate 2 (fluorescence units) |
| --- | --- | --- | --- | --- | --- |
| l(1)G0020 (GeneID 31811) | 1 | 3.42e7 | 2.89e7 | 1.75e7 | 1.45e7 |
| CG33514 (GeneID 3346239) | 1 | 2.46e7 | 2.14e7 | 1.50e7 | 1.04e7 |
| CG33514 (GeneID 3346239) | 2 | 1.65e7 | 3.91e7 | 9.13e6 | 1.56e7 |
| CG33514 (GeneID 3346239) | 3 | 4.28e7 | 3.73e7 | 2.51e7 | 1.79e7 |
| Obp18a (GeneID 32897) | 1 | 5.61e7 | 5.03e7 | 2.51e7 | 2.00e7 |
| ATPsyndelta (GeneID 31950) | 1 | 3.11e7 | 4.33e7 | 1.93e7 | 2.09e7 |
| Got1 (GeneID 36782) | 1 | 3.25e7 | 3.05e7 | 1.53e7 | 1.52e7 |
| Rcd-1 (GeneID 32966) | 1 | 3.62e7 | 3.21e7 | 1.95e7 | 1.56e7 |
| Polr3I (GeneID 32678) | 1 | 2.86e7 | 3.09e7 | 1.40e7 | 1.26e7 |
| CR31958 (GeneID 33603) | 1 | 3.71e7 | 3.34e7 | 1.80e7 | 1.46e7 |
| CR31958 (GeneID 33603) | 2 | 2.17e7 | 4.13e7 | 1.14e7 | 1.87e7 |
| dap (GeneID 36001) | 1 | 3.32e7 | 2.89e7 | 1.34e7 | 1.43e7 |
| PNKP (GeneID 40994) | 1 | 2.69e7 | 2.03e7 | 1.37e7 | 1.04e7 |
| lab (GeneID 40817) | 1 | 4.23e7 | 3.18e7 | 2.16e7 | 1.57e7 |

Laid out differently: results already given.
{"predicted target":"ATPsyndelta (GeneID 31950)","reagent":1,"calcium entry signal, replicate 1 (fluorescence units)":3.11e7,"calcium entry signal, replicate 2 (fluorescence units)":4.33e7,"resting calcium signal, replicate 1 (fluorescence units)":1.93e7,"resting calcium signal, replicate 2 (fluorescence units)":2.09e7}
{"predicted target":"Got1 (GeneID 36782)","reagent":1,"calcium entry signal, replicate 1 (fluorescence units)":3.25e7,"calcium entry signal, replicate 2 (fluorescence units)":3.05e7,"resting calcium signal, replicate 1 (fluorescence units)":1.53e7,"resting calcium signal, replicate 2 (fluorescence units)":1.52e7}
{"predicted target":"Rcd-1 (GeneID 32966)","reagent":1,"calcium entry signal, replicate 1 (fluorescence units)":3.62e7,"calcium entry signal, replicate 2 (fluorescence units)":3.21e7,"resting calcium signal, replicate 1 (fluorescence units)":1.95e7,"resting calcium signal, replicate 2 (fluorescence units)":1.56e7}

Further reagents follow:
| predicted target | reagent | calcium entry signal, replicate 1 (fluorescence units) | calcium entry signal, replicate 2 (fluorescence units) | resting calcium signal, replicate 1 (fluorescence units) | resting calcium signal, replicate 2 (fluorescence units) |
| --- | --- | --- | --- | --- | --- |
| CG4839 (GeneID 34348) | 1 | 5.12e7 | – | 2.66e7 | – |
| CG4839 (GeneID 34348) | 2 | 2.38e7 | 3.81e7 | 1.12e7 | 1.68e7 |
| CG13130 (retired record) (GeneID 50439) | 1 | 2.80e7 | 4.07e7 | 1.32e7 | 1.88e7 |
| Elba3 (GeneID 33670) | 1 | 3.59e7 | – | 1.68e7 | – |
| sprt (GeneID 246397) | 1 | 2.78e7 | 3.33e7 | 1.26e7 | 1.59e7 |
| tei (GeneID 36521) | 1 | 4.63e7 | 3.46e7 | 2.29e7 | 1.76e7 |
| Rpt2 (GeneID 42828) | 1 | 1.67e7 | 1.55e7 | 1.36e7 | 1.15e7 |
| Alg9 (GeneID 43031) | 1 | 4.11e7 | 3.35e7 | 2.08e7 | 1.58e7 |
| NimC1 (GeneID 34816) | 1 | 5.20e7 | 3.52e7 | 2.27e7 | 1.67e7 |
| Ppt1 (GeneID 31805) | 1 | 3.54e7 | 4.10e7 | 1.60e7 | 1.95e7 |
